Assay results taken from patent publication EP4606823A1.
Results are given in words; binding and its absence hold for the method and conditions named. Some results given as binding are weak or reduced against the parent protein; the word gives no strength. Tags and fused reporters may be left off the sequences shown.

Protein sequences, listed by entry. Tags and fused reporters are not part of them. Residues count along the entry.
UniProt Q8NHJ6, residues 22-259: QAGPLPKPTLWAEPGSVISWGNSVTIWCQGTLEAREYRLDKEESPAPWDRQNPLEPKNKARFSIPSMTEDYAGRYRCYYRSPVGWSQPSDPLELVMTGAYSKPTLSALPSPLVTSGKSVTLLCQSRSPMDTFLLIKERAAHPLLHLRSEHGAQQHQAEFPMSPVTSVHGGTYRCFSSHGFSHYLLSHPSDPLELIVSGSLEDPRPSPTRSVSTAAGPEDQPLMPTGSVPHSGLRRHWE

Tests used:
[1] = biological target: LILRB4 protein (UniProt Q8NHJ6); test: SPR; LILRB4 protein stationary phase, ApoE mobile phase 1, NLB(G4S)IGG1FC mobile phase 2
[2] = biological target: LILRB4 protein (UniProt Q8NHJ6); test: SPR competition; LILRB4 protein stationary phase, NLB(G4S)IGG1FC mobile phase; competitor NLB14

B1: NLB4 VHH antibody fused with human IgG1 (Fc) (Fc fusion, not shown: a dimerising Fc or GST)
chain: DVQLQESGGGLVQSGGSLRLSCLASGTSGNVKAVGWYGWYRQAPGKQREVVATITRGGIPNYADSVQGRFTISRDNAQDTVFLQMNSLKPADTAVYYCYARILTDDWHDLWGQGTQVTVSSGGGGS
[1]
  binding: binds
[2]
  binding: binds

B2: NLB14 VHH antibody fused with human IgG1 (Fc) (Fc fusion, not shown: a dimerising Fc or GST)
chain: DVQLQESGGGLVQPGGSLRLSCAASGFTLDYYAIGWFRQAPGKEREGVSCVSSSDGSTYYADSVKGRFTISRDNAKNTVYLQMNSLKPEDTAVYYCAADQYSSTWTIRLTRCHFGSWGQGTQVTVSSGGGGS
[1]
  binding: binds
